Measured values reported in the supplement of paper PMC12823440, “Inhibitors supercharge kinase turnover through native proteolytic circuits” (Nature, 2025).
This is one part of the list. The calls rarely recur for the same compound in another form.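 Kinases were expressed as nanoluciferase fusions in K562 cells and luminescence was read every 4 h between 2 and 18 h as percent of control, DMSO set to 100% and a positive control to 0%. A time point counts as decreased when the signal drops significantly (2 sigma). The hit call is the authors' own, does not follow from the count of time points alone, and its rule is not shown.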

Protein sequences, listed by entry. Tags and fused reporters are not part of them. Lines headed by an entry give the natural chain unless they say otherwise; changes in a name come on top.
UniProt Q9UM73: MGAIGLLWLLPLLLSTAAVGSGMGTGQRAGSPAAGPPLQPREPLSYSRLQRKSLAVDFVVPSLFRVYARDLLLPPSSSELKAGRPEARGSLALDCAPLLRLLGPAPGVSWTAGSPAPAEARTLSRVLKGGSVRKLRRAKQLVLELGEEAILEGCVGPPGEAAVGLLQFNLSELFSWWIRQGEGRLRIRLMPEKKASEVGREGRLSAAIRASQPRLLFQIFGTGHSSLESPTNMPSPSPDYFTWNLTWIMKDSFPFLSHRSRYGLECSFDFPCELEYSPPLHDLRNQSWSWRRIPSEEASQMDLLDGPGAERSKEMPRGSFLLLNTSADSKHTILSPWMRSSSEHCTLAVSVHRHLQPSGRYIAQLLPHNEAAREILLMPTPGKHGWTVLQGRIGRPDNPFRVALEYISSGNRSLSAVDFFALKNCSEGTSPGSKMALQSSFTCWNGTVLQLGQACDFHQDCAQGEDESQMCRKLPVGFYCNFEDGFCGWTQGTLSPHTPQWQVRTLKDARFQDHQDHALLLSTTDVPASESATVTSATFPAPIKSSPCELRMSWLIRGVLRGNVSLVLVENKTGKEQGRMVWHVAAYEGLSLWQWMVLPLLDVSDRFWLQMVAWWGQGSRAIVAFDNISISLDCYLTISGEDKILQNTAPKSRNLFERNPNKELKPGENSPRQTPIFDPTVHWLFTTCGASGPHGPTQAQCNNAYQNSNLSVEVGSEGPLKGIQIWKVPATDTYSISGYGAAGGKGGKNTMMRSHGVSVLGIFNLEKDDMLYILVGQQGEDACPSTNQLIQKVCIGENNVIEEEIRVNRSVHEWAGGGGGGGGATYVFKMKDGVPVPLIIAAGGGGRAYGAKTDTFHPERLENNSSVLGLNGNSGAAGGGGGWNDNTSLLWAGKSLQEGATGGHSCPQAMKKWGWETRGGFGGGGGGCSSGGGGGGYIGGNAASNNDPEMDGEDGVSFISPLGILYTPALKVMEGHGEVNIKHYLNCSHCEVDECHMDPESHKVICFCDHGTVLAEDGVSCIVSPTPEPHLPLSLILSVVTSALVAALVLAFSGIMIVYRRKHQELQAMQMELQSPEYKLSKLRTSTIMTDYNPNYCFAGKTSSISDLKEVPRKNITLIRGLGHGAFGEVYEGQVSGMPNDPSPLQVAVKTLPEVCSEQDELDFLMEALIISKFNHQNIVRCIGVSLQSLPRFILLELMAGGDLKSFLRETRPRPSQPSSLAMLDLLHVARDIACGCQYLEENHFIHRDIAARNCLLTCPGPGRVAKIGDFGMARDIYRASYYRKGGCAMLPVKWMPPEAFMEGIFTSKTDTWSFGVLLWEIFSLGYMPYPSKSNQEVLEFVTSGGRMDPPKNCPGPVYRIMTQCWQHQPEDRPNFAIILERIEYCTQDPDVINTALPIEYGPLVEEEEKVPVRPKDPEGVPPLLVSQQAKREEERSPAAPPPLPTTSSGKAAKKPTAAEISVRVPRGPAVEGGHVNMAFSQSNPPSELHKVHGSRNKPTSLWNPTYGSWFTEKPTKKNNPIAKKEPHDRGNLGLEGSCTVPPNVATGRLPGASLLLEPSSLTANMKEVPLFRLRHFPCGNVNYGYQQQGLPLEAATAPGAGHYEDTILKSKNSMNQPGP
UniProt P10398: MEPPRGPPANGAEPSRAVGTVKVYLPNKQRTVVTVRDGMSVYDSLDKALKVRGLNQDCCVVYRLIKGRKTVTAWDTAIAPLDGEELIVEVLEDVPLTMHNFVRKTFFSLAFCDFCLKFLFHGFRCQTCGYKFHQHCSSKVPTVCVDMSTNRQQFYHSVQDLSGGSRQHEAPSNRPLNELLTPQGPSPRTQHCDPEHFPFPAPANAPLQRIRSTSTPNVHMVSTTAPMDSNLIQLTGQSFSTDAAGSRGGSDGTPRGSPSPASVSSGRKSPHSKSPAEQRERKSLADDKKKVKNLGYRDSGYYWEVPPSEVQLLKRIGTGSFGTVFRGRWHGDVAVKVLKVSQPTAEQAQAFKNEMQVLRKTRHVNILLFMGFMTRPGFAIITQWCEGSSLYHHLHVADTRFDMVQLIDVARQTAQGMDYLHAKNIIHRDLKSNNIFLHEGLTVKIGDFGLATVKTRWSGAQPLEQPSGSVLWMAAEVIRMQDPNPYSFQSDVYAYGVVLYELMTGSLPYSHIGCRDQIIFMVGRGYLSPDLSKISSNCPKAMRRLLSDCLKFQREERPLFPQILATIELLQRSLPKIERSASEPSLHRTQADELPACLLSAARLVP
UniProt O14965: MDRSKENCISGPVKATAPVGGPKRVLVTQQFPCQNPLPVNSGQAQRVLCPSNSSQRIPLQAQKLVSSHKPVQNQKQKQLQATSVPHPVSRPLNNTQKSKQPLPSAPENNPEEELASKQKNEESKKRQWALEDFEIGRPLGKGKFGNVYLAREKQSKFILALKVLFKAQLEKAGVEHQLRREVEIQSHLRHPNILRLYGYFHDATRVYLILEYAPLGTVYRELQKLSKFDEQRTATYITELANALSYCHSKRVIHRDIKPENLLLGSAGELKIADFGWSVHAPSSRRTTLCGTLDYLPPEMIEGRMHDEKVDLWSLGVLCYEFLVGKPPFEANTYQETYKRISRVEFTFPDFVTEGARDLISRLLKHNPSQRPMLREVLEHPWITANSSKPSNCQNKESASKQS
UniProt Q96GD4, whole entry: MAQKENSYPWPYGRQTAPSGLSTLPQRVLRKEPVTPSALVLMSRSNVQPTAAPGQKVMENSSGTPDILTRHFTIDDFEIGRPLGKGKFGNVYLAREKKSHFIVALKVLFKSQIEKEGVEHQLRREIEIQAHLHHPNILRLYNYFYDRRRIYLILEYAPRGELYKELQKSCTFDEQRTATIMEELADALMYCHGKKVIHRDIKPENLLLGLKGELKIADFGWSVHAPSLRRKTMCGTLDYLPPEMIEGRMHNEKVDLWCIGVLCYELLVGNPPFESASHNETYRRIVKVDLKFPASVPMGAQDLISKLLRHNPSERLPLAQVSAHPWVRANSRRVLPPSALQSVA
UniProt Q9UQB9: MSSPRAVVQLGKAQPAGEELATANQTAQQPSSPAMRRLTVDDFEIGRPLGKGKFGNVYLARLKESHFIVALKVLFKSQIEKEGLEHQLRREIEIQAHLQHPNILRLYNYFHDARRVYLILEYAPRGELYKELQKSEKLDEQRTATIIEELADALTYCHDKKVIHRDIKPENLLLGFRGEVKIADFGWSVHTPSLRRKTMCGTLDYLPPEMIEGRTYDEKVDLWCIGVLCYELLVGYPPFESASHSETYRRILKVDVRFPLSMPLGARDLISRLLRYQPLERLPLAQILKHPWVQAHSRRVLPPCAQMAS
UniProt P51451: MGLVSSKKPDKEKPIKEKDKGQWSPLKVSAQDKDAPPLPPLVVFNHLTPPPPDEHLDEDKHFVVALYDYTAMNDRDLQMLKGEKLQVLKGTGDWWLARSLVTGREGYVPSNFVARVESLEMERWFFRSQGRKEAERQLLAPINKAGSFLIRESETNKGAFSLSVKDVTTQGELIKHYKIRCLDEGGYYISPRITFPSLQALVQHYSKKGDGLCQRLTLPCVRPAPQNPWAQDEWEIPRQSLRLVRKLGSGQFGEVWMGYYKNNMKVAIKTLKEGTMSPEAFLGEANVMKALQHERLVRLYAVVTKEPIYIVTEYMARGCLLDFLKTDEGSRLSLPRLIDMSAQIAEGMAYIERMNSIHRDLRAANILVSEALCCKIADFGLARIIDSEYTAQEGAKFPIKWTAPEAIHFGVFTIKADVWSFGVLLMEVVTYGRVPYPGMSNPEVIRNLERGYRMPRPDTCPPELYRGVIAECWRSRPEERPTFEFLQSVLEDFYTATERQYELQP
UniProt P51813: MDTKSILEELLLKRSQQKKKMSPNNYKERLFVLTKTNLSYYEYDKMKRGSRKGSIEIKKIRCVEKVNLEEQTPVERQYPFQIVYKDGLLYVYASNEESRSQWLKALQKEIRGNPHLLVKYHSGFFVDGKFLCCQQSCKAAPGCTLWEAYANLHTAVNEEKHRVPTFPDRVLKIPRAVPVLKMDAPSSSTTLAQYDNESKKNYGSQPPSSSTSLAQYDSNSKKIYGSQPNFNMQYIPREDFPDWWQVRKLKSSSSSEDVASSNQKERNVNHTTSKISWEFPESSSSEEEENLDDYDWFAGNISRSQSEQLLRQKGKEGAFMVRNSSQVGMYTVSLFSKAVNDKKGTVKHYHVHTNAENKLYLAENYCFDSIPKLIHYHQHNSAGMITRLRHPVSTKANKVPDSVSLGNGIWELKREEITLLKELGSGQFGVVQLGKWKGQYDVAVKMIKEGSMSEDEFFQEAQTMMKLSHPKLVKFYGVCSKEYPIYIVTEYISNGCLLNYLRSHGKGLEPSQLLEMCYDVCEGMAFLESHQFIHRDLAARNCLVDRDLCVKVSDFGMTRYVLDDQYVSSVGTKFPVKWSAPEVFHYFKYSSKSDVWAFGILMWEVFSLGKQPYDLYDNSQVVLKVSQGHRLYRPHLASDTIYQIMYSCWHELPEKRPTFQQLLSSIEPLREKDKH
UniProt Q9UQM7, whole entry: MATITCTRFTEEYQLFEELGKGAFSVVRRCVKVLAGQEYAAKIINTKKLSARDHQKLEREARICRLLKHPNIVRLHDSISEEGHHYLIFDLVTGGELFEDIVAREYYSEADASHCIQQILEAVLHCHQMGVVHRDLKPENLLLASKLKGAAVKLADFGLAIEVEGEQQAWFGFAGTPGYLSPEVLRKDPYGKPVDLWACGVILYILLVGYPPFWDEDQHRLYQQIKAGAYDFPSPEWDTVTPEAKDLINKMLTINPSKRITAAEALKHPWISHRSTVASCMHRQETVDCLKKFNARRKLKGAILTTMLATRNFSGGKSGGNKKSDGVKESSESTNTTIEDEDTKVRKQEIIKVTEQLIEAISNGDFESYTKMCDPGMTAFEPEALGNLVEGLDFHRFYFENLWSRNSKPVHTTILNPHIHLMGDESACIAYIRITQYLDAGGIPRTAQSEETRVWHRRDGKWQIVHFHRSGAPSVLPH
UniProt Q13555: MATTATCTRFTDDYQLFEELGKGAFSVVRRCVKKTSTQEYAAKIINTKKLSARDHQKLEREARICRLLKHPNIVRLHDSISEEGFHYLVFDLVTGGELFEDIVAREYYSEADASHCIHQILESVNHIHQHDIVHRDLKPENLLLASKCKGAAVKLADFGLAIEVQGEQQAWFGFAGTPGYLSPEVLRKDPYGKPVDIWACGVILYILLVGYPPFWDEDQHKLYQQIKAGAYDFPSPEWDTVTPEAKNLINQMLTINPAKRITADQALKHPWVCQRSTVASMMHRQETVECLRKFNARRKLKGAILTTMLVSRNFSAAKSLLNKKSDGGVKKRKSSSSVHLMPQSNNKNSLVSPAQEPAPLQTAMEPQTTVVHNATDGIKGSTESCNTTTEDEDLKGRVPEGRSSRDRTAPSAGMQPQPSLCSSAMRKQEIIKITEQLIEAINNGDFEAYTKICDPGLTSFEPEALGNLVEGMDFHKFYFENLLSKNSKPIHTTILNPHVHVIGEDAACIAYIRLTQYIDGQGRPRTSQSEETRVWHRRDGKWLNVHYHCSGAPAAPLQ
UniProt Q15131: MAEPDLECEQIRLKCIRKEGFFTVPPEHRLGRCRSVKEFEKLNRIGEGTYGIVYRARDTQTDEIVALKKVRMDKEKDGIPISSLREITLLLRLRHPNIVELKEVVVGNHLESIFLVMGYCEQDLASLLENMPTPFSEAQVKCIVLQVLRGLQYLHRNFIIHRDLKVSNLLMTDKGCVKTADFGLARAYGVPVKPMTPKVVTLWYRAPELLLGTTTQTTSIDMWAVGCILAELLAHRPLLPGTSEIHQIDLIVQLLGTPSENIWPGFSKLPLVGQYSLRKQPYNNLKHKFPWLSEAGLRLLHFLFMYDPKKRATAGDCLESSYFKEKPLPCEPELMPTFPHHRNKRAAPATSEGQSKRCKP
UniProt P11802: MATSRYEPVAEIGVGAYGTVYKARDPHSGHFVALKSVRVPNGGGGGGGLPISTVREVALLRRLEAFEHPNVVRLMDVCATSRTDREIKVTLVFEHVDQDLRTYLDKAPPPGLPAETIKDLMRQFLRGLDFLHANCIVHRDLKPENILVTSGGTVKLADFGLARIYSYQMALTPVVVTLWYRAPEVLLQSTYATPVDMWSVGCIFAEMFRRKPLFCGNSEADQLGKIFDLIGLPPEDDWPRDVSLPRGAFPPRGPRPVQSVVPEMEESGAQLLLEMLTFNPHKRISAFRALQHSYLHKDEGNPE
UniProt Q00535, whole entry, looked up: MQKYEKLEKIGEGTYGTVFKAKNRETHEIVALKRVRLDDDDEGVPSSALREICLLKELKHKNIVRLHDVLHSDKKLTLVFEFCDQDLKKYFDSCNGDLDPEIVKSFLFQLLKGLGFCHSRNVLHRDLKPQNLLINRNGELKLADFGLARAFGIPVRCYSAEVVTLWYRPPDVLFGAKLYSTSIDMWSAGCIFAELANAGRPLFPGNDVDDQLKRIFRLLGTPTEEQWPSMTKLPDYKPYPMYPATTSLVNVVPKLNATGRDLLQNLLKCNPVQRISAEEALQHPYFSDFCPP

Tests used:
Experiment in all cases: kinase-Nluc reporter destabilization hit call (1 = scored as downregulated) (binary); higher = compound decreases kinase abundance
Conditions in all cases: K562; 2-18 h
ABL1 = ABL1 (UniProt P00519)
AKT1 = AKT1 (UniProt P31749)
ALK = ALK (UniProt Q9UM73)
ARAF = ARAF (UniProt P10398)
AURKA = AURKA (UniProt O14965)
AURKB = AURKB (UniProt Q96GD4)
AURKC = AURKC (UniProt Q9UQB9)
BLK = BLK (UniProt P51451)
BMX = BMX (UniProt P51813)
BRAF = BRAF (UniProt P15056)
BRAF_V600E = test system: BRAF_V600E
BTK = BTK (UniProt Q06187)
CAMK2A = CAMK2A (UniProt Q9UQM7)
CAMK2G = CAMK2G (UniProt Q13555)
CDK10 = CDK10 (UniProt Q15131)
CDK2 = CDK2 (UniProt P24941)
CDK3 = CDK3 (UniProt Q00526)
CDK4 = CDK4 (UniProt P11802)
CDK5 = CDK5 (UniProt Q00535)
CDK6 = CDK6 (UniProt Q00534)

Measured: kinase-Nluc reporter destabilization hit call

O=C(NCCCNC(=O)Nc1cccc(C2=NCCN2)c1)Nc1cccc(C2=NCCN2)c1 [p32 Inhibitor M36] (10 µM)
inactive: ABL1 = 0 | AKT1 = 0 | ALK 0 | ARAF 0 | AURKA 0 | AURKB 0 | AURKC 0 | BLK 0 | BMX 0 | BRAF 0 | BRAF_V600E 0 | BTK 0 | CAMK2A 0 | CAMK2G 0 | CDK10 = 0 | CDK2 = 0 | CDK3 = 0 | CDK4 = 0 | CDK5 = 0 | CDK6 = 0

Cc1cc(O)c(C(C)C)cc1N=O [Poloxime] (10 µM)
inactive: ABL1 = 0 | AKT1 = 0 | ALK 0 | ARAF 0 | AURKA 0 | AURKB 0 | AURKC 0 | BLK 0 | BMX 0 | BRAF 0 | BRAF_V600E 0 | BTK 0 | CAMK2A 0 | CAMK2G 0 | CDK10 = 0 | CDK2 = 0 | CDK3 = 0 | CDK4 = 0 | CDK5 = 0 | CDK6 = 0

CC/C=C\C/C=C\C/C=C\CCCCCCCC(=O)O [α-Linolenic acid] (10 µM)
inactive: ABL1 = 0 | AKT1 = 0 | ALK 0 | ARAF 0 | AURKA 0 | AURKB 0 | AURKC 0 | BLK 0 | BMX 0 | BRAF 0 | BRAF_V600E 0 | BTK 0 | CAMK2A 0 | CAMK2G 0 | CDK10 = 0 | CDK2 = 0 | CDK3 = 0 | CDK4 = 0 | CDK5 = 0 | CDK6 = 0

NCc1ccc(Nc2ncc(F)c(Nc3ccccc3)n2)cc1 (10 µM)
inactive: ABL1 = 0 | AKT1 = 0 | ALK 0 | ARAF 0 | AURKA 0 | AURKB 0 | AURKC 0 | BLK 0 | BMX 0 | BRAF 0 | BRAF_V600E 0 | BTK 0 | CAMK2A 0 | CAMK2G 0 | CDK10 = 0 | CDK2 = 0 | CDK3 = 0 | CDK4 = 0 | CDK5 = 0 | CDK6 = 0

COCCOc1ccc(-c2cn(-c3ccccc3)c3nc[nH]c(=O)c23)cc1 (10 µM)
inactive: ABL1 = 0 | AKT1 = 0 | ALK 0 | ARAF 0 | AURKA 0 | AURKB 0 | AURKC 0 | BLK 0 | BMX 0 | BRAF 0 | BRAF_V600E 0 | BTK 0 | CAMK2A 0 | CAMK2G 0 | CDK10 = 0 | CDK2 = 0 | CDK3 = 0 | CDK4 = 0 | CDK5 = 0 | CDK6 = 0

CN1CCN(c2ccc(Nc3ncc4nc(Nc5ccccc5)n([C@@H]5CCN(S(=O)(=O)C6CC6)C5)c4n3)cc2)CC1 (2.5 µM)
inactive: ABL1 = 0 | AKT1 = 0 | ALK 0 | ARAF 0 | AURKA 0 | AURKB 0 | AURKC 0 | BLK 0 | BMX 0 | BRAF 0 | BRAF_V600E 0 | BTK 0 | CAMK2A 0 | CAMK2G 0 | CDK10 = 0 | CDK2 = 0 | CDK3 = 0 | CDK4 = 0 | CDK5 = 0 | CDK6 = 0

CN1C(=O)C(Cc2c[nH]c3ccccc23)NC1=S (stereo not given) [Necrostatin-1] (10 µM)
inactive: ABL1 = 0 | AKT1 = 0 | ALK 0 | ARAF 0 | AURKA 0 | AURKB 0 | AURKC 0 | BLK 0 | BMX 0 | BRAF 0 | BRAF_V600E 0 | BTK 0 | CAMK2A 0 | CAMK2G 0 | CDK10 = 0 | CDK2 = 0 | CDK3 = 0 | CDK4 = 0 | CDK5 = 0 | CDK6 = 0

CC(C)NC(=O)N1CC[C@H](NC2=Nc3cc(F)ccc3N(CC(F)F)c3ccc(Cl)cc32)C1 (10 µM)
inactive: ABL1 = 0 | AKT1 = 0 | ALK 0 | ARAF 0 | AURKA 0 | AURKB 0 | AURKC 0 | BLK 0 | BMX 0 | BRAF 0 | BRAF_V600E 0 | BTK 0 | CAMK2A 0 | CAMK2G 0 | CDK10 = 0 | CDK2 = 0 | CDK3 = 0 | CDK4 = 0 | CDK5 = 0 | CDK6 = 0

CNCc1ccccc1-c1csc([C@@H](C)Nc2nc(C)nc3cc(OC)c(OC)cc23)c1 (2.5 µM)
inactive: ABL1 = 0 | AKT1 = 0 | ALK 0 | ARAF 0 | AURKA 0 | AURKB 0 | AURKC 0 | BLK 0 | BMX 0 | BRAF 0 | BRAF_V600E 0 | BTK 0 | CAMK2A 0 | CAMK2G 0 | CDK10 = 0 | CDK2 = 0 | CDK3 = 0 | CDK4 = 0 | CDK5 = 0 | CDK6 = 0

Cc1ccc(Oc2nc3cc(-c4ccc5c(ccn5C)c4)c(Cl)cc3[nH]2)cc1C(=O)O (10 µM)
inactive: ABL1 = 0 | AKT1 = 0 | ALK 0 | ARAF 0 | AURKA 0 | AURKB 0 | AURKC 0 | BLK 0 | BMX 0 | BRAF 0 | BRAF_V600E 0 | BTK 0 | CAMK2A 0 | CAMK2G 0 | CDK10 = 0 | CDK2 = 0 | CDK3 = 0 | CDK4 = 0 | CDK5 = 0 | CDK6 = 0

COc1cc(F)c(F)c(Nc2ccc(I)cc2F)c1NS(=O)(=O)C1(C[C@H](O)CO)CC1 [Refametinib] (10 µM)
inactive: ABL1 = 0 | AKT1 = 0 | ALK 0 | ARAF 0 | AURKA 0 | AURKB 0 | AURKC 0 | BLK 0 | BMX 0 | BRAF 0 | BRAF_V600E 0 | BTK 0 | CAMK2A 0 | CAMK2G 0 | CDK10 = 0 | CDK2 = 0 | CDK3 = 0 | CDK4 = 0 | CDK5 = 0 | CDK6 = 0

Fetched by compound from the list above, 2 records:
CNCc1ccccc1-c1csc([C@@H](C)Nc2nc(C)nc3cc(OC)c(OC)cc23)c1 (2.5 µM)
inactive: ABL1 = 0 | AKT1 = 0 | ALK 0 | ARAF 0 | AURKA 0 | AURKB 0 | AURKC 0 | BLK 0 | BMX 0 | BRAF 0 | BRAF_V600E 0 | BTK 0 | CAMK2A 0 | CAMK2G 0 | CDK10 = 0 | CDK2 = 0 | CDK3 = 0 | CDK4 = 0 | CDK5 = 0 | CDK6 = 0

Cc1ccc(Oc2nc3cc(-c4ccc5c(ccn5C)c4)c(Cl)cc3[nH]2)cc1C(=O)O (10 µM)
inactive: ABL1 = 0 | AKT1 = 0 | ALK 0 | ARAF 0 | AURKA 0 | AURKB 0 | AURKC 0 | BLK 0 | BMX 0 | BRAF 0 | BRAF_V600E 0 | BTK 0 | CAMK2A 0 | CAMK2G 0 | CDK10 = 0 | CDK2 = 0 | CDK3 = 0 | CDK4 = 0 | CDK5 = 0 | CDK6 = 0

Following part:

CC(C)=CC(=O)CCC(=O)N1CCN(Cc2cc3nc(-c4cccc5[nH]ncc45)nc(N4CCOCC4)c3s2)CC1 (10 µM)
active: BRAF 1 | CDK6 = 1
inactive: ABL1 = 0 | AKT1 = 0 | ALK 0 | ARAF 0 | AURKA 0 | AURKB 0 | AURKC 0 | BLK 0 | BMX 0 | BRAF_V600E 0 | BTK 0 | CAMK2A 0 | CAMK2G 0 | CDK10 = 0 | CDK2 = 0 | CDK3 = 0 | CDK4 = 0 | CDK5 = 0

N#Cc1cccc(-c2c[nH]c3ncnc(N4CCOCC4)c23)c1 (10 µM)
inactive: ABL1 = 0 | AKT1 = 0 | ALK 0 | ARAF 0 | AURKA 0 | AURKB 0 | AURKC 0 | BLK 0 | BMX 0 | BRAF 0 | BRAF_V600E 0 | BTK 0 | CAMK2A 0 | CAMK2G 0 | CDK10 = 0 | CDK2 = 0 | CDK3 = 0 | CDK4 = 0 | CDK5 = 0 | CDK6 = 0

CS(=O)(=O)c1ccc(-c2noc(C(F)(F)F)c2-c2ccccc2)cc1 (10 µM)
inactive: ABL1 = 0 | AKT1 = 0 | ALK 0 | ARAF 0 | AURKA 0 | AURKB 0 | AURKC 0 | BLK 0 | BMX 0 | BRAF 0 | BRAF_V600E 0 | BTK 0 | CAMK2A 0 | CAMK2G 0 | CDK10 = 0 | CDK2 = 0 | CDK3 = 0 | CDK4 = 0 | CDK5 = 0 | CDK6 = 0

OCCNC1CCCc2c1[nH]c1ccc(-c3ccccc3)cc21 (stereo not given) (2.5 µM)
inactive: ABL1 = 0 | AKT1 = 0 | ALK 0 | ARAF 0 | AURKA 0 | AURKB 0 | AURKC 0 | BLK 0 | BMX 0 | BRAF 0 | BRAF_V600E 0 | BTK 0 | CAMK2A 0 | CAMK2G 0 | CDK10 = 0 | CDK2 = 0 | CDK3 = 0 | CDK4 = 0 | CDK5 = 0 | CDK6 = 0

CC(C)(C)NC(=O)c1cncn1C1CCN(c2ccc(-c3nnc(C(F)(F)F)o3)cn2)CC1 (10 µM)
inactive: ABL1 = 0 | AKT1 = 0 | ALK 0 | ARAF 0 | AURKA 0 | AURKB 0 | AURKC 0 | BLK 0 | BMX 0 | BRAF 0 | BRAF_V600E 0 | BTK 0 | CAMK2A 0 | CAMK2G 0 | CDK10 = 0 | CDK2 = 0 | CDK3 = 0 | CDK4 = 0 | CDK5 = 0 | CDK6 = 0

Cc1ccc(S(=O)(=O)/C=C/C#N)cc1 (10 µM)
inactive: ABL1 = 0 | AKT1 = 0 | ALK 0 | ARAF 0 | AURKA 0 | AURKB 0 | AURKC 0 | BLK 0 | BMX 0 | BRAF 0 | BRAF_V600E 0 | BTK 0 | CAMK2A 0 | CAMK2G 0 | CDK10 = 0 | CDK2 = 0 | CDK3 = 0 | CDK4 = 0 | CDK5 = 0 | CDK6 = 0

COc1cc2ncnc(Nc3cccc(Cl)c3)c2cc1OC (10 µM)
inactive: ABL1 = 0 | AKT1 = 0 | ALK 0 | ARAF 0 | AURKA 0 | AURKB 0 | AURKC 0 | BLK 0 | BMX 0 | BRAF 0 | BRAF_V600E 0 | BTK 0 | CAMK2A 0 | CAMK2G 0 | CDK10 = 0 | CDK2 = 0 | CDK3 = 0 | CDK4 = 0 | CDK5 = 0 | CDK6 = 0
